Laboratory results reported in publication PMC12501023.
No constants are given. Whether binding was seen depends on the method and setting. In cells and extracts the contact can be indirect. Some binding calls cover weakened binding; strength is not graded here. Tags and fused reporters may be left off the sequences shown.

Protein sequences, listed by entry. Tags and fused reporters are not part of them. Residues count along the entry.
UniProt Q9EQY0, residues 21-977: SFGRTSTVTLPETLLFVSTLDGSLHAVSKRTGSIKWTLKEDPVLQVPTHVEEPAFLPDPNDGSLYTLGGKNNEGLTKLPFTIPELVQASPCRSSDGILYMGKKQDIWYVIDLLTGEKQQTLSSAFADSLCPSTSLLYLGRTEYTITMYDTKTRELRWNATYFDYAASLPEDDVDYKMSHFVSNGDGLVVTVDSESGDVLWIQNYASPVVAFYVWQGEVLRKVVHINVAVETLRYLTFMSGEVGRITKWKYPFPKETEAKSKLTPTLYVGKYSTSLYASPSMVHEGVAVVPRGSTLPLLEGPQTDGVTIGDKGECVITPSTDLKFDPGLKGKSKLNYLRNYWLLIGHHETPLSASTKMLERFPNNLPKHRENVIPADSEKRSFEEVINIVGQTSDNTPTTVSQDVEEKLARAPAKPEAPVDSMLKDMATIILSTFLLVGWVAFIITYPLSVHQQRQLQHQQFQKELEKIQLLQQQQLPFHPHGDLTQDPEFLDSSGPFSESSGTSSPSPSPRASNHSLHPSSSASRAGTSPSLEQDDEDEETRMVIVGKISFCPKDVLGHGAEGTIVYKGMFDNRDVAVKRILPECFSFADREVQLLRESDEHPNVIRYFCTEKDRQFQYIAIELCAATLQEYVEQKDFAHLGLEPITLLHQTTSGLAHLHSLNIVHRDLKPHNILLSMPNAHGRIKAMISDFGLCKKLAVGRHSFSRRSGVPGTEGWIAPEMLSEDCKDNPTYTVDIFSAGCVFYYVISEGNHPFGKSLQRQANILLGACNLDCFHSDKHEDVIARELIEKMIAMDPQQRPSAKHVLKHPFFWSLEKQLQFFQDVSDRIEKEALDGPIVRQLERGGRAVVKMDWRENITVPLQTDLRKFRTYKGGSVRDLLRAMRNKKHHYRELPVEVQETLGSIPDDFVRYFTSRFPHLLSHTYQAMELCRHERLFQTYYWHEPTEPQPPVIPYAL

Biological target: T1, STING-FLAG (UniProt Q3TBT3)
T1 sequence: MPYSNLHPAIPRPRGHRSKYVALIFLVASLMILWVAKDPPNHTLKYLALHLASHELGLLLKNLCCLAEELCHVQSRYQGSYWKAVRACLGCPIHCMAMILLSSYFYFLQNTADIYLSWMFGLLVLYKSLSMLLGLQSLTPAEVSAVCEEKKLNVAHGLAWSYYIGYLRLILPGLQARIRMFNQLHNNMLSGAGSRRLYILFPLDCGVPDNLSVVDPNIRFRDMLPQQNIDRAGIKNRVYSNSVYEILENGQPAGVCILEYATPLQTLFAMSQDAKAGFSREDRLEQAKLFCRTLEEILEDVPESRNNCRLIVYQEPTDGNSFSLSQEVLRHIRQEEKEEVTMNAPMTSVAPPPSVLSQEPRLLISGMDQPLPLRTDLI
Experiment: co-IP; immunoprecipitation of exogenous STING-FLAG from HEK293T cells transfected with STING and IRE1α plasmids, control IgG; lysis buffer 150 mM NaCl, 1 mM EDTA, 50 mM Tris-HCl, 0.5% NP-40, 10 mM NEM; antibody overnight at 4°C, Protein A/G PLUS-Agarose, five washes

binding: binds
Substance: HA-tagged IRE1α (from UniProt Q9EQY0 21-977)
